PubChem BioAssay AID504791 | Drosophila RNAi Screening Center – 2011

- Screen: 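Factors in Argonaute-based small RNA production and activity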 (primary screen)
- Cells: Drosophila S2-derived reporter cells
- Reagent: long dsRNA against Drosophila genes, about 150-250 ng dsRNA per well (siRNA assay); about 80-120 ng (miRNA assay)
- Time to read-out: about 5 days (siRNA assay); about 4 days (miRNA assay)
- Treatment: copper sulfate induction of reporters: 25 µM (siRNA assay); 200 mM stated (miRNA assay), 1-2 days before reading
- Measurement: 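Dual luciferase assay: Renilla to firefly signal ratio in each well, scaled to the mean ratio of its plate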
- Call rule: 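First-pass picks had plate-scaled ratios over 1.5 for the siRNA assay, over 1.6 for the miRNA assay, or under 0.6; two distinct dsRNAs had to score alike on retest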
The screen tested about 23,000 reagents; shown is a random part of those that have a named target and a result. Over the whole deposit, 199 (0.86%) were called active. 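Plate-scaled ratios behind the calls are not deposited; printed light signals are raw; many rows marked increased or decreased are still called inactive.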 A plus sign joins genes that one reagent is predicted to hit. Not given: the direction of the score.

| Target gene | PubChem SID | stable siRNA reporter change | miRNA reporter change | stable assay Renilla, run 1 (luminescence) | stable assay firefly, run 1 (luminescence) | call |
| --- | --- | --- | --- | --- | --- | --- |
| mRpS17 | SID104184255 | – | – | 5674 | 3.61e5 | inactive |
| Nf1 | SID104196550 | – | – | 9883 | 5.97e5 | inactive |
| CG33230 | SID104188394 | – | – | 12196 | 5.90e5 | inactive |
| CG42382 | SID104187463 | – | – | 6802 | 3.85e5 | inactive |
| et | SID104199374 | – | – | 6972 | 5.33e5 | inactive |
| CG11635 + spaw | SID104185867 | – | – | 6530 | 3.51e5 | inactive |
| CG32652 (retired record) | SID104198734 | – | – | 4791 | 3.57e5 | inactive |
| CG32652 (retired record) | SID104202059 | – | – | 2980 | 3.63e5 | inactive |
| Ns1 | SID104195321 | – | – | 8441 | 3.41e5 | inactive |
| CG16736 | SID104194937 | – | – | 7464 | 3.99e5 | inactive |
| mthl14 | SID104187657 | – | – | 5599 | 3.98e5 | inactive |
| CG10280 | SID104191925 | – | – | 5546 | 3.73e5 | inactive |
| Letm1 | SID104184268 | – | – | 1.39e5 | 1.44e6 | inactive |
| Sxl + CG14425 (retired record) | SID104198513 | – | – | 6922 | 3.34e5 | inactive |
| Sxl + CG14425 (retired record) | SID104198514 | – | – | 6146 | 3.13e5 | inactive |
| Sxl + CG14425 (retired record) | SID104201220 | – | – | 8932 | 4.97e5 | inactive |
| CG18190 | SID104186506 | – | – | 6000 | 3.80e5 | inactive |
| CG11722 | SID104194150 | – | – | 7918 | 5.94e5 | inactive |
| CG1172 | SID104191974 | – | – | 6743 | 4.42e5 | inactive |
| CG1172 | SID104201566 | – | – | 9041 | 5.51e5 | inactive |
| CG14931 | SID104182205 | – | – | 6839 | 4.26e5 | inactive |
| gammaSnap2 | SID104195784 | – | – | 6466 | 4.16e5 | inactive |
| Est-P | SID104190955 | – | – | 6232 | 3.78e5 | inactive |
| mms4 | SID104186041 | – | – | 6196 | 3.86e5 | inactive |
| Tom40 | SID104198588 | – | – | 6059 | 4.33e5 | inactive |
| CG1801 | SID104200348 | – | – | 7662 | 6.75e5 | inactive |
| Sc2 | SID104187954 | – | – | 7702 | 4.63e5 | inactive |
| CG31674 | SID104183000 | – | – | 7683 | 5.26e5 | inactive |
| CG15357 | SID104180179 | – | – | 7150 | 4.32e5 | inactive |
| CG42375 + CG9288 | SID104196260 | – | – | 8584 | 7.06e5 | inactive |
| Obp19a | SID104200279 | – | – | 5639 | 3.76e5 | inactive |
| Prat | SID104196589 | – | – | 8199 | 5.23e5 | inactive |
| Jon44E | SID104187008 | – | – | 5847 | 3.15e5 | inactive |
| eloF | SID104194954 | – | – | 7395 | 3.77e5 | inactive |
| mdlc | SID104195482 | – | – | 10317 | 4.29e5 | inactive |
| Ufd1 | SID104190399 | – | – | 5907 | 3.74e5 | inactive |
| qin | SID104194574 | – | – | 9296 | 5.33e5 | inactive |
| Dnah3 | SID104187922 | – | – | 5024 | 4.98e5 | inactive |
| Dnah3 | SID104188305 | – | – | 7094 | 5.19e5 | inactive |
| Ir40a | SID104183524 | – | – | 7479 | 3.72e5 | inactive |
| Ir40a | SID104183525 | – | – | 6927 | 5.19e5 | inactive |
| DIP-epsilon | SID104180724 | – | – | 4831 | 4.51e5 | inactive |
| DIP-epsilon | SID104182105 | – | – | 9885 | 6.28e5 | inactive |
| CG31038 | SID104194843 | – | – | 6946 | 4.55e5 | inactive |
| CG31038 | SID104196118 | – | – | 6826 | 4.05e5 | inactive |
| CG31038 | SID104196119 | – | – | 7243 | 3.98e5 | inactive |
| CR31700 | SID104183474 | – | – | 4395 | 3.49e5 | inactive |
| Spt-I | SID104186652 | – | – | 5407 | 3.25e5 | inactive |
| wg | SID104183428 | – | – | 8079 | 4.54e5 | inactive |
| CG42322 | SID104194904 | – | – | 7863 | 3.21e5 | inactive |
| CG42322 | SID104194905 | – | – | 6603 | 3.29e5 | inactive |
| CG42322 | SID104194906 | – | – | 6071 | 2.76e5 | inactive |
| RhoGAP19D | SID104200291 | – | – | 8631 | 5.02e5 | inactive |
| RhoGAP19D | SID104200292 | – | reporter ratio lowered past the hit cutoff | 6239 | 4.19e5 | inactive |
| Hnf4 | SID104180824 | – | – | 4952 | 3.16e5 | inactive |
| Hnf4 | SID104183136 | – | – | 3707 | 3.46e5 | inactive |
| CG13670 | SID104189821 | – | – | 6404 | 4.29e5 | inactive |
| mRpL36 | SID104190129 | – | – | 6152 | 4.99e5 | inactive |
| CecB | SID104196397 | – | – | 6434 | 5.53e5 | inactive |
| CG7741 | SID104186827 | – | – | 5971 | 4.18e5 | inactive |
| sta | SID104198630 | – | – | 5891 | 3.62e5 | inactive |
| tos | SID104183416 | – | – | 7050 | 1.49e6 | inactive |
| Fuca | SID104190383 | – | – | 6674 | 3.69e5 | inactive |
| hui | SID104185769 | – | – | 7567 | 2.97e5 | inactive |
| CG15478 | SID104197849 | – | – | 5772 | 3.79e5 | inactive |
| mah | SID104194437 | – | – | 6950 | 3.57e5 | inactive |
| Abcd1 | SID104196949 | reporter ratio raised past the hit cutoff | – | 21194 | 4.75e5 | inactive |
| Lapsyn | SID104184041 | – | – | 1.74e5 | 2.50e5 | inactive |
| Pink1 | SID104198153 | – | – | 7303 | 4.79e5 | inactive |
| CG8818 | SID104187067 | – | – | 7370 | 4.44e5 | inactive |
| SCCRO | SID104190636 | – | – | 6766 | 4.43e5 | inactive |
| CG13875 | SID104188137 | – | – | 6284 | 3.67e5 | inactive |
| CG11854 | SID104194201 | – | – | 6714 | 3.69e5 | inactive |
| CG12268 | SID104194283 | – | – | 6874 | 3.81e5 | inactive |
| CG30114 | SID104185499 | – | – | 6762 | 3.73e5 | inactive |
| Pex1 | SID104191150 | – | – | 7875 | 2.58e5 | inactive |
| ghi | SID104188777 | – | – | 5891 | 3.66e5 | inactive |
| CG31344 | SID104195861 | – | – | 7027 | 3.86e5 | inactive |
| LanB1 | SID104183152 | – | – | 13984 | 4.89e5 | inactive |
| mip130 | SID104198367 | – | – | 5455 | 3.83e5 | inactive |
| Or33a | SID104183178 | – | – | 7039 | 4.07e5 | inactive |
| Ugt36E1 | SID104182391 | – | – | 8064 | 1.96e6 | inactive |
| CG8319 | SID104196199 | – | – | 7483 | 3.76e5 | inactive |
